## Cleaved PARP after 72 h of treatment

Source: doi:10.1371/journal.pone.0140310, primary screening data, rounded.

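The test systems are human melanoma cell lines, treated with two drugs together for 72 h and then stained and imaged. The read-out is the fraction of cleaved-PARP-positive nuclei, in % of that fraction in the DMSO control; 200 means twice the control level of this apoptosis marker. Every drug was used at one fixed concentration, the higher of two screened. These are primary screening values without error estimates. Basal and induced levels differ widely between cell lines.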 Only some of the drugs and lines screened are listed, without regard to their results.

First drug in all entries: TCS401, 8.33 µM, O=C(O)C(=O)Nc1sc2c(c1C(=O)O)CCNC2

Compounds and concentrations:
decitabine, 0.5 µM: Nc1ncn([C@H]2C[C@H](O)[C@@H](CO)O2)c(=O)n1
embelin, 6 µM: CCCCCCCCCCCC1=C(O)C(=O)C=C(O)C1=O
FH535, 5 µM: Cc1cc([N+](=O)[O-])ccc1NS(=O)(=O)c1cc(Cl)ccc1Cl
JZL184, 5 µM: O=C(Oc1ccc([N+](=O)[O-])cc1)N1CCC(C(O)(c2ccc3c(c2)OCO3)c2ccc3c(c2)OCO3)CC1
Src-I1, 10 µM: COc1cc2ncnc(Nc3ccc(Oc4ccccc4)cc3)c2cc1OC
vismodegib, 5 µM: CS(=O)(=O)c1ccc(C(=O)Nc2ccc(Cl)c(-c3ccccn3)c2)c(Cl)c1
A-769662, 10 µM: N#Cc1c(O)c2c(-c3ccc(-c4ccccc4O)cc3)csc2[nH]c1=O
nutlin-3, 0.5 µM: COc1ccc(C2=N[C@@H](c3ccc(Cl)cc3)[C@@H](c3ccc(Cl)cc3)N2C(=O)N2CCNC(=O)C2)c(OC(C)C)c1
temozolomide, 10 µM: Cn1nnc2c(C(N)=O)ncn2c1=O
lenalidomide, 5 µM: Nc1cccc2c1CN(C1CCC(=O)NC1=O)C2=O (stereo not shown)
ENMD-2076, 0.2 µM: Cc1cc(Nc2cc(N3CCN(C)CC3)nc(/C=C/c3ccccc3)n2)n[nH]1
MK-2206, 2 µM: NC1(c2ccc(-c3nc4ccn5c(=O)[nH]nc5c4cc3-c3ccccc3)cc2)CCC1
L-779450, 1 µM: Oc1cc(-c2nc(-c3ccccc3)[nH]c2-c2ccncc2)ccc1Cl
dasatinib, 0.02 µM: Cc1nc(Nc2ncc(C(=O)Nc3c(C)cccc3Cl)s2)cc(N2CCN(CCO)CC2)n1
KU-55933, 5 µM: O=c1cc(-c2cccc3c2Sc2ccccc2S3)oc(N2CCOCC2)c1
erlotinib, 4 µM: C#Cc1cccc(Nc2ncnc3cc(OCCOC)c(OCCOC)cc23)c1
fludarabine, 1 µM: Nc1nc(F)nc2c1ncn2[C@@H]1O[C@H](CO)[C@@H](O)[C@@H]1O
OSU-03012, 5 µM: NCC(=O)Nc1ccc(-n2nc(C(F)(F)F)cc2-c2ccc3c(ccc4ccccc43)c2)cc1
everolimus, 0.1 µM: CO[C@H]1C[C@@H]2CC[C@@H](C)[C@@](O)(O2)C(=O)C(=O)N2CCCC[C@H]2C(=O)O[C@H]([C@H](C)C[C@@H]2CC[C@@H](OCCO)[C@H](OC)C2)CC(=O)[C@H](C)/C=C(\C)[C@@H](O)[C@@H](OC)C(=O)[C@H](C)C[C@H](C)/C=C/C=C/C=C/1C
YM155, 0.002 µM: COCC[n+]1c2c(n(Cc3cnccn3)c1C)C(=O)c1ccccc1C2=O
AS-252424, 5 µM: O=C1NC(=O)/C(=C/c2ccc(-c3ccc(F)cc3O)o2)S1

For lenalidomide the values were SK-MEL-30: 78.4; COLO 792: 147.
For JZL184 the values were SK-MEL-30: 129; COLO 792: 38.3.
For YM155 the values were SK-MEL-30: 138; COLO 792: 210.
For temozolomide the values were SK-MEL-30: 86.1; COLO 792: 110.
For A-769662 the values were SK-MEL-30: 30.5; COLO 792: 113.
For nutlin-3 the values were SK-MEL-30: 84.3; COLO 792: 90.3.
For Src-I1 the values were SK-MEL-30: 39.7; COLO 792: 83.8.
For MK-2206 the values were SK-MEL-30: 114; COLO 792: 179.
For everolimus the values were SK-MEL-30: 153; COLO 792: 140.
For L-779450 the values were SK-MEL-30: 21.0; COLO 792: 188.
For dasatinib the values were SK-MEL-30: 81.2; COLO 792: 240.
For fludarabine the values were SK-MEL-30: 418; COLO 792: 89.7.
For embelin the values were SK-MEL-30: 109; COLO 792: 56.9.
For FH535 the values were SK-MEL-30: 83.8; COLO 792: 147.
For decitabine the values were SK-MEL-30: 76.7; COLO 792: 117.
For ENMD-2076 the values were SK-MEL-30: 87.2; COLO 792: 31.0.
For KU-55933 the values were SK-MEL-30: 31.1; COLO 792: 36.3.
For AS-252424 the values were SK-MEL-30: 89.1; COLO 792: 69.4.
For erlotinib the values were SK-MEL-30: 24.6; COLO 792: 166.
For OSU-03012 the values were SK-MEL-30: 334; COLO 792: 35.4.
For vismodegib the values were SK-MEL-30: 68.6; COLO 792: 76.5.

Once more, the final 2:

Second drug,SK-MEL-30,COLO 792
OSU-03012,334,35.4
vismodegib,68.6,76.5